The other results are listed elsewhere or left out.
Compound: COc1ccc(Cn2ccc3cc(C)c(C(=O)NO)cc32)cc1
Assay: dose-dependent thermal stabilisation call (2D-TPP, DLPTP, 10% FDR) (binary (1 = stabilised)); higher = stabilised by the compound
Details: system: HL-60 intact cells; concentration range 0.04-10 µM
Protocol: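 2D thermal proteome profiling in intact HL-60 cells treated with BRD-3811 (0, 0.04, 0.29, 2, 10 uM) for 90 min at 37 C, then heated 3 min at one of 12 temperatures (42-63.9 C). Soluble protein was quantified by TMT10 MS. The value is the DLPTP call of the paper: dose-dependent thermal stabilisation over all temperatures at 10% FDR (F-test of a dose-response against a flat model); one experiment, one call per tested protein.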

Chains of the proteins cited; added tags and fusions are not shown. Lines headed by an entry give the natural chain unless they say otherwise; changes in a name come on top.
UniProt Q495W5: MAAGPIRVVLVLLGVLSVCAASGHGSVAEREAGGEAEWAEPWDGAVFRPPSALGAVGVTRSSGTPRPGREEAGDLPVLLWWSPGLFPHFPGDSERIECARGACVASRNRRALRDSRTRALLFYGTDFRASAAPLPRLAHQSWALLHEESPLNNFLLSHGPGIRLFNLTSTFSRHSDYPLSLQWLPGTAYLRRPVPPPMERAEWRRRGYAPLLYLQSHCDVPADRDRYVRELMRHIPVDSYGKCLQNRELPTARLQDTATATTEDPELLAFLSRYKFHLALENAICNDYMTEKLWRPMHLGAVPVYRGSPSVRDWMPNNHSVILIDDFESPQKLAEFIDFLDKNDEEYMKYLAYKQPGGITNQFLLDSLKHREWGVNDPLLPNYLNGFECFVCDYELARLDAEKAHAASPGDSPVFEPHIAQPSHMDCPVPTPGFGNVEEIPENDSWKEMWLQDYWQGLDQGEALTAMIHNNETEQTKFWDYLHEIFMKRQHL
UniProt Q8NFF5: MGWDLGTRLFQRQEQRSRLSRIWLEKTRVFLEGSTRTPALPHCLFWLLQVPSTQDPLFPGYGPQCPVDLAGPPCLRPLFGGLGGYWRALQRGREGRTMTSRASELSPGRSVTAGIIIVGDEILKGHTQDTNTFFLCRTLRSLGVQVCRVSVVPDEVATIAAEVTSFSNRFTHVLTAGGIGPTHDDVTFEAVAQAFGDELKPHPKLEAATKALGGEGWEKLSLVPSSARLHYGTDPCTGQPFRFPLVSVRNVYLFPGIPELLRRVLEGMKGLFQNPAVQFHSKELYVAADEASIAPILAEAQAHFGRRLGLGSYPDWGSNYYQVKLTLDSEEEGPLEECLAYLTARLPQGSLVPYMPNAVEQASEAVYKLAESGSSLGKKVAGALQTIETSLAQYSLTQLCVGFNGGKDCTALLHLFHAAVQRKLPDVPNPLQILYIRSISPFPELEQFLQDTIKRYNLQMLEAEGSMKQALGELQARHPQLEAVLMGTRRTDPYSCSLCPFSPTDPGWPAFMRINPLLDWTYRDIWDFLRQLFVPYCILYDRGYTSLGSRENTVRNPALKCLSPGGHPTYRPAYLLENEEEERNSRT
UniProt Q13643: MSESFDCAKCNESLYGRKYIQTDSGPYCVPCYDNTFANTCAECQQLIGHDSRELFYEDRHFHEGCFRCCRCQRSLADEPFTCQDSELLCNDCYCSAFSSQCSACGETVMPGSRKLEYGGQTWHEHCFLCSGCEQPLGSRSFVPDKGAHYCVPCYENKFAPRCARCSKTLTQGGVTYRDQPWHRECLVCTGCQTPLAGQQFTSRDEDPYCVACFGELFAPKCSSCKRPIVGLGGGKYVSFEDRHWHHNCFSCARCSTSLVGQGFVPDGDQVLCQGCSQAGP
UniProt Q14C86: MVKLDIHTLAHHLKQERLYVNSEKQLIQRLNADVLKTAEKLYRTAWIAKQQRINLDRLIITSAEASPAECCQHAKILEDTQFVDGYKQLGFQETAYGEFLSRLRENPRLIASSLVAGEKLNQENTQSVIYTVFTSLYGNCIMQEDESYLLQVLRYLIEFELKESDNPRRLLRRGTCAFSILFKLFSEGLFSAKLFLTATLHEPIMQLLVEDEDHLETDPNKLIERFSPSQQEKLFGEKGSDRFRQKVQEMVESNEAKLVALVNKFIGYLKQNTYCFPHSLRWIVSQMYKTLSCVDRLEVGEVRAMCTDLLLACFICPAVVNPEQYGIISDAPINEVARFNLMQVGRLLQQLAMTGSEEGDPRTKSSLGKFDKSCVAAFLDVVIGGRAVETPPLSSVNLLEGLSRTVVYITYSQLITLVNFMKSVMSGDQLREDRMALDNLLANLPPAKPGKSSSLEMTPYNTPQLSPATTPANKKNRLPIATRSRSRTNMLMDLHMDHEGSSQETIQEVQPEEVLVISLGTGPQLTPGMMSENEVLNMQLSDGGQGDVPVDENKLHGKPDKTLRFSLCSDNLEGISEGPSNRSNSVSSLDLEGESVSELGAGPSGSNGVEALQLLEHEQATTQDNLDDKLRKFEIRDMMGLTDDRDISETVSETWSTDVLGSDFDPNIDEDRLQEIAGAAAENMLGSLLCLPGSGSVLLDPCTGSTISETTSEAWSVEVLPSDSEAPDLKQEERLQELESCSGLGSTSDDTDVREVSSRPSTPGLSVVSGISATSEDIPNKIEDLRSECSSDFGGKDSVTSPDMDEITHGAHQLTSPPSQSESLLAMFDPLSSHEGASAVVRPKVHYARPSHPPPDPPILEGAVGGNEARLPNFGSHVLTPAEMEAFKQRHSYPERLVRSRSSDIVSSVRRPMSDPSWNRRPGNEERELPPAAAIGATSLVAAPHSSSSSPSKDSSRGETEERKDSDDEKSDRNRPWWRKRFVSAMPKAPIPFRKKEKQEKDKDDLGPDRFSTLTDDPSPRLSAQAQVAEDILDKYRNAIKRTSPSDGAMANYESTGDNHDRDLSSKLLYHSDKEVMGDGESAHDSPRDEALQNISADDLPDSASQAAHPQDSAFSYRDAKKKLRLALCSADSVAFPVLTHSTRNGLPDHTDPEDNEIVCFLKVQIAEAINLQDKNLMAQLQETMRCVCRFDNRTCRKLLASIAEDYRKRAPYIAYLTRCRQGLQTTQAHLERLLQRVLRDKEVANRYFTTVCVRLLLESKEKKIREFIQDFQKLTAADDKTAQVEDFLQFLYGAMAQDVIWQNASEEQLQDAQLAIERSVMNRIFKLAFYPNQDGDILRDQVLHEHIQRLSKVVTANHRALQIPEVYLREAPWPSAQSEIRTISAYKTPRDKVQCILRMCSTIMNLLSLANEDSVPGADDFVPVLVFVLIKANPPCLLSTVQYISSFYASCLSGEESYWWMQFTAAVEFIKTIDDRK
UniProt Q6PIW4: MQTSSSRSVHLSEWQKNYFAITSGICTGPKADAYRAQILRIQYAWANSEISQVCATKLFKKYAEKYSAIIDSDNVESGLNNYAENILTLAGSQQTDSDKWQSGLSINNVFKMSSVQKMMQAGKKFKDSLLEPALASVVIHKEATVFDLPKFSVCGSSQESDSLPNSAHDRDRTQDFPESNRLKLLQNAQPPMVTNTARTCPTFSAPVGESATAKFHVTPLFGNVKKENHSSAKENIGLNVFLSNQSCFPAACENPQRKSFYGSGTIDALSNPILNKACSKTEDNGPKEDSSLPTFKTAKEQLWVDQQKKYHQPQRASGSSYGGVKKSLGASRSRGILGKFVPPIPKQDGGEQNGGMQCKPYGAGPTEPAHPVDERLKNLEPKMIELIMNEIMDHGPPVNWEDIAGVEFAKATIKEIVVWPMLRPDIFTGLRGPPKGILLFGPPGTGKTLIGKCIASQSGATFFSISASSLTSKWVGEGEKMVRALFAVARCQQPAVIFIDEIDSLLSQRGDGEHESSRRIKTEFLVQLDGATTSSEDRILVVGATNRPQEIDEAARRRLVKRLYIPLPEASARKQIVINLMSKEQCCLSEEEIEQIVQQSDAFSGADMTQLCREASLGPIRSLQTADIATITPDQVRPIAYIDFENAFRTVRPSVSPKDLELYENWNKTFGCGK
UniProt Q9BSJ8: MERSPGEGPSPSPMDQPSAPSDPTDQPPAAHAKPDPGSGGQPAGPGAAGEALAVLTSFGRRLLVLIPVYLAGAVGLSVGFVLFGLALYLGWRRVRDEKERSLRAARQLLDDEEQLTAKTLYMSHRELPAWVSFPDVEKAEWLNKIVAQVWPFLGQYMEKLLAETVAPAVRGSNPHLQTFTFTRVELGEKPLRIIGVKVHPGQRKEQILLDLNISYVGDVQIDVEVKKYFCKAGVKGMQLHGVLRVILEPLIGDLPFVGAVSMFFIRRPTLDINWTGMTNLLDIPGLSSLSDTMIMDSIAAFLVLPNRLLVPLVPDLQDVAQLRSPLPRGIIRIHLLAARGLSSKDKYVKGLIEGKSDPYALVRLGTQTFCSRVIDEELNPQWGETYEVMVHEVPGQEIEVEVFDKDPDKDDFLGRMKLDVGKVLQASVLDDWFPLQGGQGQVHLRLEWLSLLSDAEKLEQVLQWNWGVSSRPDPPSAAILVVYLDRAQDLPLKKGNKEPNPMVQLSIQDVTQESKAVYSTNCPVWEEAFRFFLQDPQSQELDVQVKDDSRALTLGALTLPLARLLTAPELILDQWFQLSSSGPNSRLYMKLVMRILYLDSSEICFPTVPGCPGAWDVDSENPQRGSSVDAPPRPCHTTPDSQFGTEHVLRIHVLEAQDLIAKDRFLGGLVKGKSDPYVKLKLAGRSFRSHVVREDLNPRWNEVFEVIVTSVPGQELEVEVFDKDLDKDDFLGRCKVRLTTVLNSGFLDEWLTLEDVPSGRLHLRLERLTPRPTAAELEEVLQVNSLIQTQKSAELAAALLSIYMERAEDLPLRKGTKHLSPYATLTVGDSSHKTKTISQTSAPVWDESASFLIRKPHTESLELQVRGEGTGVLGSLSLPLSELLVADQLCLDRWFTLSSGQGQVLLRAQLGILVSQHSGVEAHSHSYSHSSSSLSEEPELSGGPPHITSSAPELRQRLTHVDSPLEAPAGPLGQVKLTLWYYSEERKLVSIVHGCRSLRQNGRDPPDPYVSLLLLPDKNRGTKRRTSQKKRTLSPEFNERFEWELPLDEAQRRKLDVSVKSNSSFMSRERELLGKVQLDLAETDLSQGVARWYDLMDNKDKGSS
UniProt Q5XUX1: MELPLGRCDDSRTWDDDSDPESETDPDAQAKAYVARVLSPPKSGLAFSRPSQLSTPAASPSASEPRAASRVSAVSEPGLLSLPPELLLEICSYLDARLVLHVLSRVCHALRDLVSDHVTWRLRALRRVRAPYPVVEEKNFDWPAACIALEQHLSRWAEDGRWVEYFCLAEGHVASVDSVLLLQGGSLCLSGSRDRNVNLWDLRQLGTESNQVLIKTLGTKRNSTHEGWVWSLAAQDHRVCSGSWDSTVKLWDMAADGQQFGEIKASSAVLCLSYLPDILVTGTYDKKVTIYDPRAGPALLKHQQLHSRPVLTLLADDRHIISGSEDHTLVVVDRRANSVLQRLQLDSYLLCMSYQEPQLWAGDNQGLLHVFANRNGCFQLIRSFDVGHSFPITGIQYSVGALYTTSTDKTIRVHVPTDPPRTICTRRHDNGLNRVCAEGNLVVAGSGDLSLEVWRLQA
UniProt Q96SL8: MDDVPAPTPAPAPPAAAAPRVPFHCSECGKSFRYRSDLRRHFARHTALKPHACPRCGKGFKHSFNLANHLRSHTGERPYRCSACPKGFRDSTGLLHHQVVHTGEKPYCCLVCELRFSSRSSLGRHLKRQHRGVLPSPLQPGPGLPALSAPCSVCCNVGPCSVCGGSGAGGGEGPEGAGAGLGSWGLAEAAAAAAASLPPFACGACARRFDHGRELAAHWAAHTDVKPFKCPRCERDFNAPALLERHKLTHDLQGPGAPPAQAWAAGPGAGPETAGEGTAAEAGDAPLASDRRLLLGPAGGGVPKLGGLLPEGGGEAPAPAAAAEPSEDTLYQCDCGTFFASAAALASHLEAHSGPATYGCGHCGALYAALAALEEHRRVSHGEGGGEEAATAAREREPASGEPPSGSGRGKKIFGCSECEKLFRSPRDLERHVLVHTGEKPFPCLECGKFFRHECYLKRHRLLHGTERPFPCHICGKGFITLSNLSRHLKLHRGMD
UniProt Q86UX7, whole entry: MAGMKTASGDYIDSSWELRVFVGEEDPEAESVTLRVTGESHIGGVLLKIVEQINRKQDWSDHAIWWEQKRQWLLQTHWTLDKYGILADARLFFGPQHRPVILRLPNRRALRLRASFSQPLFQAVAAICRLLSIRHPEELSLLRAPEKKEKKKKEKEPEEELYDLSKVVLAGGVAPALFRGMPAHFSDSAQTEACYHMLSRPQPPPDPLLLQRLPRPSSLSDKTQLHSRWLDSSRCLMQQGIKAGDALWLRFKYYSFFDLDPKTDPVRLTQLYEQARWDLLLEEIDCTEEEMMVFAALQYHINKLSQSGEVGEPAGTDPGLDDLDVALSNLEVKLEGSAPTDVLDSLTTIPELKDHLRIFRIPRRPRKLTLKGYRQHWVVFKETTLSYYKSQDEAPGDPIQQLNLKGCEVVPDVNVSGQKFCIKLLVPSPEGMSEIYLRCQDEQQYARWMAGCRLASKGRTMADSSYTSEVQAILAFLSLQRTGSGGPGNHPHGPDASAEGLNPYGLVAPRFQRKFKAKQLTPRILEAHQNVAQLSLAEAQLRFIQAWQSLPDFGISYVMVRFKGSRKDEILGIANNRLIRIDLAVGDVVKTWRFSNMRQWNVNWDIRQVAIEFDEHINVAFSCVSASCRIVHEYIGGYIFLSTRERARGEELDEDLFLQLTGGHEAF
UniProt Q9H3K2: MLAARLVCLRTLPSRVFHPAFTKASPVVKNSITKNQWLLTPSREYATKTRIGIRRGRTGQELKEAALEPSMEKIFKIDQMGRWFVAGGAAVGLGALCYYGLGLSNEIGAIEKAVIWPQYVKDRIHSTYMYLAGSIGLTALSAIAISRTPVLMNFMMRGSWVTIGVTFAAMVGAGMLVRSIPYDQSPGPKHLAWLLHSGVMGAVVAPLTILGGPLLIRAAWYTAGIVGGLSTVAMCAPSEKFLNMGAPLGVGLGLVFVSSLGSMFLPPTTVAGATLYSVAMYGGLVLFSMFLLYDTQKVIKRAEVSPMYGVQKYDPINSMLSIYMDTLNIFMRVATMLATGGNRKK

Target	dose-dependent thermal stabilisation call
FHIT (UniProt P49789)	inactive: 0
FLJ12529	inactive: 0
FUT11 (UniProt Q495W5)	inactive: 0
FOXP1 (UniProt Q9H334)	inactive: 0
FLAD1 (UniProt Q8NFF5)	inactive: 0
FAM78A (UniProt Q5JUQ0)	inactive: 0
FLJ11506	inactive: 0
GK (UniProt P32189)	inactive: 0
FPGT (UniProt O14772)	inactive: 0
FASTKD5 (UniProt Q7L8L6)	inactive: 0
FHL3 (UniProt Q13643)	inactive: 0
GAPVD1 (UniProt Q14C86)	inactive: 0
GDE1 (UniProt Q9NZC3)	inactive: 0
FIGNL1 (UniProt Q6PIW4)	inactive: 0
FAT1 (UniProt Q14517)	inactive: 0
FAM62A (UniProt Q9BSJ8)	inactive: 0
FBXW9 (UniProt Q5XUX1)	inactive: 0
FLJ20323	inactive: 0

Target	dose-dependent thermal stabilisation call
GNAS	inactive: 0
FIBP (UniProt O43427)	inactive: 0
G3P1_HUMAN	inactive: 0
FIZ1 (UniProt Q96SL8)	inactive: 0
GNL1 (UniProt P36915)	inactive: 0
GMDS (UniProt O60547)	inactive: 0
FBXO6 (UniProt Q9NRD1)	inactive: 0
FRG1 (UniProt Q14331)	inactive: 0
FERMT3 (UniProt Q86UX7)	inactive: 0
GMFB (UniProt P60983)	inactive: 0
FOSB (UniProt P53539)	inactive: 0
FH (UniProt P07954)	inactive: 0
GLOD4 (UniProt Q9HC38)	inactive: 0
GGA2 (UniProt Q9UJY4)	inactive: 0
GCC2 (UniProt Q8IWJ2)	inactive: 0
GBAS (UniProt O75323)	inactive: 0
FNDC3A (UniProt Q9Y2H6)	inactive: 0
GHITM (UniProt Q9H3K2)	inactive: 0

Taken from above (ten entries):
Target	dose-dependent thermal stabilisation call
FIBP (UniProt O43427)	inactive: 0
G3P1_HUMAN	inactive: 0
FIZ1 (UniProt Q96SL8)	inactive: 0
GNL1 (UniProt P36915)	inactive: 0
GMDS (UniProt O60547)	inactive: 0
FBXO6 (UniProt Q9NRD1)	inactive: 0
FRG1 (UniProt Q14331)	inactive: 0
FERMT3 (UniProt Q86UX7)	inactive: 0
GMFB (UniProt P60983)	inactive: 0
FOSB (UniProt P53539)	inactive: 0
